Some of the results follow.
test system: T1, CTL2-GFP (C. trachomatis L2/434/Bu, GFP-expressing); parameters: species or system HeLa; Intracellular C. trachomatis growth in HeLa cells, bulk GFP fluorescence relative to DMSO; details: bulk GFP, single well; 28.5 h, 10 µM; inhibitor
T1 construct: L2/434/Bu, GFP-expressing

Row | Structure (SMILES) | % of control remaining [%]
1 | Cc1ccccc1N1C(=O)/C(=C/c2cn(Cc3ccccc3[N+](=O)[O-])c3ccccc23)SC1=S [CBK265101] | 134.643
2 | FC(F)(F)c1ccnc(OCCN2CCNCC2)c1 [CBK113459] | 118.264
3 | O=C(CSc1nsc(SCC(=O)c2ccccc2)n1)c1ccccc1 [CBK264142] | 71.9872
4 | NNc1nc(-c2ccccc2)cc(-c2ccc(Br)cc2)n1 [CBK261795] | 122.265
5 | CS(=O)(=O)Nc1ccc2cc(-c3ccc(Oc4ccccc4)cc3)cnc2n1 [CBK085674] | 100
6 | COc1cc(NC(=O)N[C@@H]2CN(C)C[C@H]2c2ccc(OC)c(OC)c2)cc(OC)c1 [CBK081112] | 100.764
7 | Cc1cccc(C2(O)CCN(CC(O)c3ccccc3)CC2)c1 (centres unmarked) [CBK286325] | 116.102
8 | O=C(c1cc(F)cc(F)c1)N1CCC(c2cccnc2)CC1 [CBK283892] | 129.965
9 | CCn1cc(CN(C)Cc2ccon2)c2cc(C(=O)O)ncc21 [CBK307017] | 112.407
10 | COc1cc(/C=N/Nc2nnn[nH]2)cc2c1OCO2 [CBK262253] | 129.311
11 | O=C(N[C@@H](Cn1cc(Cl)c(=O)[nH]c1=O)C(=O)O)c1cccc(F)c1 [CBK289650] | 133.375
12 | CCC(C)NC(=O)c1ccccc1NS(=O)(=O)c1cc(C(=O)O)cs1 (centres unmarked) [CBK295652] | 139.791
13 | COc1cc(CN2CCN(c3cc(C)ccc3C)CC2)cc([N+](=O)[O-])c1O [CBK261868] | 118.481
14 | CC(Oc1ccc2c(c1)OCO2)C(=O)N1CCc2sccc2C1c1ccccc1 (centres unmarked) [CBK285549] | 125.192
15 | O=C(NCCCN1CCOCC1)Nc1ccccc1F [CBK269233] | 138.538
16 | Cc1cc(C)nc(SCC(=O)c2ccc(F)cc2)n1 [CBK092116] | 121.514
17 | O=C(c1ccco1)N1CCC(c2nnc(-c3ccccc3)c(-c3ccccc3)n2)CC1 [CBK286282] | 106.273
18 | Cc1nc(C2CCN(C(=O)c3ccnn3C)CC2)c2sccn12 [CBK285203] | 102.435
19 | CCNc1ncc(C(=O)N2CCC(Nc3cccnc3)CC2)s1 [CBK304047] | 131.918
20 | CN1CCCC1C(CCNC1CCCCC1)c1ccccc1 (centres unmarked) [CBK023921C] | 102.969
21 | Nc1nonc1C(=O)NCCNS(=O)(=O)c1ccc(F)cc1 [CBK265980] | 122.291
22 | CCCn1c(O)cc(=O)nc1SCC(=O)N1CCCc2ccccc21 [CBK304977] | 130.649
23 | Cc1nnc(N2C(=O)c3oc4ccccc4c(=O)c3C2c2ccc(OCc3ccccc3)cc2)s1 (centres unmarked) [CBK266287] | 156.154
24 | Cc1cc(C(=O)N2CCC(C(=O)NC(c3cnccn3)c3ccccc3C)CC2)no1 (centres unmarked) [CBK059810] | 102.074
25 | CC(=O)NCCn1nc(-c2ccccc2F)cc1CN(C)C [CBK283473] | 119.407

Row | Structure (SMILES) | % of control remaining [%]
26 | O=C(O)/C=C/c1cccc(-c2cncc(NCCc3ccncc3)n2)c1 [CBK065358] | 160.534
27 | CCOc1cccc(CNc2ccc(O)cc2)c1OCc1ccc(Cl)cc1Cl [CBK074528] | 76.4036
28 | COc1ccc(C(NC(=O)C2CCN(Cc3ccc4c(c3)OCO4)CC2)c2ccccc2C)cn1 (centres unmarked) [CBK081453T] | 117.907
29 | Cn1cc(C(=O)NC2CCN(C(=O)c3ccc(C#N)cc3)CC2)cn1 [CBK305683] | 94.7616
30 | C=Cn1cccc1C(=O)N1C2CCC1c1cnc3cc(C)nn3c1C2 (centres unmarked) [CBK284382] | 119.097
31 | Cc1cc2ccccc2n1CCC(=O)NC1CCCOC1 (centres unmarked) [CBK283152] | 110.416
32 | Cc1cc(OCC(=O)N(C)C)c2c3c(c(=O)oc2c1)CCCC3 [CBK307189] | 106.714
33 | O=C(N/N=C/c1cc2c(cc1Cl)OCO2)C(O)c1ccccc1 (centres unmarked) [CBK262177] | 100.487
34 | Cc1ccc(-c2nc3ccccc3[nH]2)cc1NC(=O)CSc1ccc(Cl)cc1 [CBK268942] | 166.038
35 | Cc1ccc2[nH]c(-c3ccccc3NC(=O)CCCC(=O)O)nc2c1 [CBK295154] | 168.007
36 | CCOC(=O)Nc1ccc2c(c1)N(C(=O)CCN(C)C)c1ccccc1CC2 [CBK278193C] | 100
37 | CC1CCCN(C(=O)CN2C3CCC2CC(O)(c2ccco2)C3)C1 (centres unmarked) [CBK284095] | 96.3237
38 | CCOc1ccc(C(=O)N2CC(C(N)=O)CCC2C)cn1 (centres unmarked) [CBK305770] | 123.673
39 | O=C(/C=C/c1ccccc1Cl)NCCc1ccccc1 [CBK261794] | 121.607
40 | CC(=O)N1CCc2c([nH]c3ccccc23)C12CCCN(CCC#N)C2 (centres unmarked) [CBK039665] | 126.332
41 | COc1nccc(N2CCN(C(=O)C3CC3)CC(O)C2)c1C#N (centres unmarked) [CBK306613] | 124.027
42 | O=C(NCc1ccc(Cl)cc1)c1cn(-c2ccccc2)c2ccc(CN3CCOCC3)cc2c1=O [CBK018481] | 112.49
43 | COc1ccc(CN2CCCN(c3nccc(OCc4cc(C)on4)n3)CC2)cc1 [CBK083911] | 113.738
44 | Cc1c(C(=O)O)sc2nc(SC/C=C/c3ccccc3)nc(N)c12 [CBK300523] | 133.747
45 | CC(NS(=O)(=O)c1ccc(OCC(=O)N2CCc3ccccc3C2)c(Cl)c1)c1ccccc1 (centres unmarked) [CBK269117] | 124.967
46 | Nc1nc(CSc2nnc(-c3ccccc3O)n2Cc2ccccc2)cs1 [CBK267394] | 135.724
47 | CC(C)C[C@H](NC(=O)OC(C)(C)C)C(=O)NC[C@H]1CC[C@H](C(=O)O)CC1 [CBK286750] | 118.523
48 | CSc1nc(N/N=C/c2ccc(Cl)cc2)c2c3c(sc2n1)CN(C)CC3 [CBK262588] | 110
49 | NCCCNc1ncc(C(=O)NCc2ccccc2)c(NCC2CCCCC2)n1 [CBK215386] | 40.2851
50 | Cc1c(NC(=O)C2CN(S(=O)(=O)c3ccccc3)CCN2S(=O)(=O)c2ccccc2)c(=O)n(-c2ccccc2)n1C (centres unmarked) [CBK264138] | 100

Quoted from the listing.
`O=C(N[C@@H](Cn1cc(Cl)c(=O)[nH]c1=O)C(=O)O)c1cccc(F)c1` [CBK289650] | % of control remaining [%]: 133.375
`CCn1cc(CN(C)Cc2ccon2)c2cc(C(=O)O)ncc21` [CBK307017] | % of control remaining [%]: 112.407

Source: PMC12040169 (PLOS Biology, 2025)
